{"source": "patent US10752634B2", "about": "“Crystalline forms of a brutons tyrosine kinase inhibitor” (Pharmacyclics LLC, priority 2012, dated 2020)", "test_system": "OCI-Ly10", "test": "Induction of apoptosis in OCI-Ly10 (caspase activation, Annexin-V flow cytometry, sub-G0 fraction)", "format": "cell-based", "conditions": "increase in sub-G0 fraction", "note": "At least one structure is not confirmed: it was looked up by name or label, or the drawing left a doubt.", "data": [{"smiles": "C=CC(=O)N1CCC[C@@H](n2nc(-c3ccc(Oc4ccccc4)cc3)c3c(N)ncnc32)C1", "note": "[Compound 1, 1-((R)-3-(4-amino-3-(4-phenoxyphenyl)-1H-pyrazolo[3,4-d]pyrimidin-1-yl)piperidin-1-yl)prop-2-en-1-one]", "values": [{"measurement": "induction of apoptosis", "result": "induction of apoptosis"}]}]}
